{"source": "PubChem BioAssay AID1259254 (NCATS, 2017)", "assay": "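Genome-wide screen for genes that prevent DNA re-replication in cancer cells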 (primary screen)", "system": "human HCT116 colorectal cancer cells", "reagent": "single siRNA against human genes", "duration": "3 days", "measured": "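Imaged Hoechst DNA stain sorts each cell into a cycle phase by DNA amount; per plate, G2 fraction set to 0% for non-targeting and 100% for GMNN siRNA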", "direction": "G2 robust z-score and G2 cells, % of GMNN control: higher = more G2 cells, more excess DNA replication", "active means": "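Active siRNAs have a G2 robust z of 5 or more median absolute deviations over the median, which in these data means about 38% or higher of GMNN control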", "note": "This is a random part of about 59,000 reagents tested. Over the whole deposit, about 1,550 (2.6%) were called active. 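G2 share is only a proxy for re-replication; each gene was hit by three separate siRNAs, and active genes were retested.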 Unmarked entries are inactive. Reagents against one gene are numbered here. Not all columns of the deposit are shown. Not given: the amount of reagent."}
The first 2 records as a preview:
{"Target gene": "ZNHIT1 (zinc finger HIT-type containing 1)", "reagent no.": 1, "G2 robust z-score": -0.994, "G2 cells, % of GMNN control": -4.02}
{"Target gene": "ZNHIT1 (zinc finger HIT-type containing 1)", "reagent no.": 2, "G2 robust z-score": -0.829, "G2 cells, % of GMNN control": -2.87}

The listing, from the first entry:
{"Target gene": "ZNHIT1 (zinc finger HIT-type containing 1)", "reagent no.": 1, "G2 robust z-score": -0.994, "G2 cells, % of GMNN control": -4.02}
{"Target gene": "ZNHIT1 (zinc finger HIT-type containing 1)", "reagent no.": 2, "G2 robust z-score": -0.829, "G2 cells, % of GMNN control": -2.87}
{"Target gene": "ZNHIT1 (zinc finger HIT-type containing 1)", "reagent no.": 3, "G2 robust z-score": 2.59, "G2 cells, % of GMNN control": 21.2}
{"Target gene": "KPNA6 (karyopherin subunit alpha 6)", "reagent no.": 1, "G2 robust z-score": -1.06, "G2 cells, % of GMNN control": -4.53}
{"Target gene": "KPNA6 (karyopherin subunit alpha 6)", "reagent no.": 2, "G2 robust z-score": -0.115, "G2 cells, % of GMNN control": 2.16}
{"Target gene": "KPNA6 (karyopherin subunit alpha 6)", "reagent no.": 3, "G2 robust z-score": 4.23, "G2 cells, % of GMNN control": 32.7}
{"Target gene": "NUTF2 (nuclear transport factor 2)", "reagent no.": 1, "G2 robust z-score": 1.78, "G2 cells, % of GMNN control": 15.5}
{"Target gene": "NUTF2 (nuclear transport factor 2)", "reagent no.": 2, "G2 robust z-score": 1.93, "G2 cells, % of GMNN control": 16.6}
{"Target gene": "NUTF2 (nuclear transport factor 2)", "reagent no.": 3, "G2 robust z-score": 2.64, "G2 cells, % of GMNN control": 21.6}
{"Target gene": "IL15RA (interleukin 15 receptor subunit alpha)", "reagent no.": 1, "G2 robust z-score": 0.796, "G2 cells, % of GMNN control": 8.57}
{"Target gene": "IL15RA (interleukin 15 receptor subunit alpha)", "reagent no.": 2, "G2 robust z-score": 0.491, "G2 cells, % of GMNN control": 6.42}
{"Target gene": "IL15RA (interleukin 15 receptor subunit alpha)", "reagent no.": 3, "G2 robust z-score": 0.554, "G2 cells, % of GMNN control": 6.86}
{"Target gene": "PLPP3 (phospholipid phosphatase 3)", "reagent no.": 1, "G2 robust z-score": 0.187, "G2 cells, % of GMNN control": 4.28}
{"Target gene": "PLPP3 (phospholipid phosphatase 3)", "reagent no.": 2, "G2 robust z-score": 3.42, "G2 cells, % of GMNN control": 27}
{"Target gene": "PLPP3 (phospholipid phosphatase 3)", "reagent no.": 3, "G2 robust z-score": -0.547, "G2 cells, % of GMNN control": -0.884}
{"Target gene": "TRIM71 (tripartite motif containing 71)", "reagent no.": 1, "G2 robust z-score": 0.02, "G2 cells, % of GMNN control": 3.11}
{"Target gene": "TRIM71 (tripartite motif containing 71)", "reagent no.": 2, "G2 robust z-score": 0.228, "G2 cells, % of GMNN control": 4.57}
{"Target gene": "TRIM71 (tripartite motif containing 71)", "reagent no.": 3, "G2 robust z-score": 0.784, "G2 cells, % of GMNN control": 8.49}
{"Target gene": "TRPM6", "reagent no.": 1, "G2 robust z-score": 0.673, "G2 cells, % of GMNN control": 7.71}
{"Target gene": "TRPM6", "reagent no.": 2, "G2 robust z-score": -0.594, "G2 cells, % of GMNN control": -1.21}
{"Target gene": "TRPM6", "reagent no.": 3, "G2 robust z-score": 1, "G2 cells, % of GMNN control": 10}
{"Target gene": "DCD (dermcidin)", "reagent no.": 1, "G2 robust z-score": -0.768, "G2 cells, % of GMNN control": -2.44}
{"Target gene": "DCD (dermcidin)", "reagent no.": 2, "G2 robust z-score": -0.529, "G2 cells, % of GMNN control": -0.757}
{"Target gene": "DCD (dermcidin)", "reagent no.": 3, "G2 robust z-score": -0.639, "G2 cells, % of GMNN control": -1.53}
